Results taken from PMC5247606.
No constants are given. Whether binding was seen depends on the method and setting. In cells and extracts the contact can be indirect. Some results given as binding are weak or reduced against the parent protein; the word gives no strength.

Protein sequences, listed by entry. Tags and fused reporters are not part of them.
UniProt P31266: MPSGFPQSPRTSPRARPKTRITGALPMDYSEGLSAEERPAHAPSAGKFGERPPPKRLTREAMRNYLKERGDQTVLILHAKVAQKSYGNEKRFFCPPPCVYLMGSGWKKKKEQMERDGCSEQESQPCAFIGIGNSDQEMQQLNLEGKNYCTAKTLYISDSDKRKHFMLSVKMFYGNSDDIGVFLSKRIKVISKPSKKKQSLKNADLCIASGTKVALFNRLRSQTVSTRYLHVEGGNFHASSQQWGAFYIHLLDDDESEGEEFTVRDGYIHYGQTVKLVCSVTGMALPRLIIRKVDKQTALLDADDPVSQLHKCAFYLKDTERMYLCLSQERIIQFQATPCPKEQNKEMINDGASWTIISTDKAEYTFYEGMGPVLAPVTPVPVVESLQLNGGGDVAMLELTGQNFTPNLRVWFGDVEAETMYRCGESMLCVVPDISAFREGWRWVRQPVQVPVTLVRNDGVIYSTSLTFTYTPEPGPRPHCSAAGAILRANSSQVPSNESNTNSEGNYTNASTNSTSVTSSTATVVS
UniProt Q9R1E0: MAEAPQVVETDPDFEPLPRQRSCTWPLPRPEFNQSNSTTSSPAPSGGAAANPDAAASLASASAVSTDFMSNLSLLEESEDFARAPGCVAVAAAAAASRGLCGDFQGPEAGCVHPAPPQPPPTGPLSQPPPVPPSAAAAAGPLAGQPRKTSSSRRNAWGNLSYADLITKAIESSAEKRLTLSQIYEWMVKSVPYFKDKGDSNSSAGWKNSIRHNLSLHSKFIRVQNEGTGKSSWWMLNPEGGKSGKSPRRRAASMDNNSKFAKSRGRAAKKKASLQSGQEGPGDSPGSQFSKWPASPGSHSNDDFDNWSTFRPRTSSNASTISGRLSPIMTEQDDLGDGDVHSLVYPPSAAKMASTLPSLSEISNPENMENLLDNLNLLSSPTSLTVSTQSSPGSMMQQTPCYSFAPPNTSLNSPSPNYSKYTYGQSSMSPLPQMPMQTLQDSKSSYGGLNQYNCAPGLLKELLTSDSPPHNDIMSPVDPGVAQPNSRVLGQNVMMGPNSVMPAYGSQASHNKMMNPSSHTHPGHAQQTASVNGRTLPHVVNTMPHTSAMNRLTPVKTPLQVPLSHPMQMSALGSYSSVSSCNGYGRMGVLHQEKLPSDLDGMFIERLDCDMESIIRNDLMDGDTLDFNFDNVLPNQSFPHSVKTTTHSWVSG

Target: RBPJκ (mouse (endogenous in primary myoblasts)) (UniProt P31266)
Test: co-IP; total or nuclear protein from Rosa^Notch1 primary myoblasts infected with or without AdCre (Notch activation) and AdFoxO1-ADA adenovirus; lysate (500 ug total protein) precleared, 4 ug anti-RBPJκ or rabbit IgG overnight at 4 °C, protein A/G agarose, six washes, western blot

Substance: Forkhead box protein O1 (FoxO1) (from UniProt Q9R1E0 1-652)
- binding: binds
